Some entries share one result that the patent states for a list of compounds.
What follows are compounds tested on T-lymphoid cells (assay: Cytotoxicity by microscopic examination of cells in the spread assay). Conditions: no cytotoxicity at concentrations of up to 8 micromolar; spread assay cultures.
Type: cell-based
In the case of `Cc1c(C(=O)N(C)Cc2ccc3ncccc3c2)[nH]c(C(N)=O)c1S(=O)(=O)c1cc(Cl)cc(C#N)c1` [Example 57], the “cytotoxicity (lowest concentration at which a morphological change is observed)” value is reported as > 8 micromolar.
`CC(C)c1c(C(=O)N(C)Cc2ccccc2)[nH]c(C(N)=O)c1S(=O)(=O)c1ccccc1` [Example 58, N-Benzyl-3-isopropyl-N-methyl-4-(phenylsulfonyl)-1H-pyrrole-2,5-dicarboxamide] was tested, and the “cytotoxicity (lowest concentration at which a morphological change is observed)” value was > 8 micromolar.
In the case of `CCc1c(C(=O)N(C)Cc2ccc(Cl)cc2Cl)[nH]c(C(N)=O)c1S(=O)(=O)c1ccccc1` [Example 59, N-(2,4-dichlorobenzyl)-3-ethyl-N-methyl-4-(phenylsulfonyl)-1H-pyrrole-2,5-dicarboxamide], the “cytotoxicity (lowest concentration at which a morphological change is observed)” value is reported as > 8 micromolar.
With `CCc1c(C(=O)N(C)Cc2ccc3ncccc3c2)[nH]c(C(N)=O)c1S(=O)(=O)c1ccccc1` [Example 60, 3-ethyl-N-methyl-4-(phenylsulfonyl)-N-(6-quinolinylmethyl)-1H-pyrrole-2,5-dicarboxamide] the “cytotoxicity (lowest concentration at which a morphological change is observed)” value was > 8 micromolar.
`CC(C)c1c(C(=O)N(C)Cc2ccccc2F)[nH]c(C(N)=O)c1S(=O)(=O)c1ccccc1` [Example 61, N-(2-fluorobenzyl)-3-isopropyl-N-methyl-4-(phenylsulfonyl)-1H-pyrrole-2,5-dicarboxamide] was tested, and the “cytotoxicity (lowest concentration at which a morphological change is observed)” value was > 8 micromolar.
For `CC(C)c1c(C(=O)N(C)Cc2ccc(Cl)cc2F)[nH]c(C(N)=O)c1S(=O)(=O)c1ccccc1` [Example 62, N-(4-chloro-2-fluorobenzyl)-3-isopropyl-N-methyl-4-(phenylsulfonyl)-1H-pyrrole-2,5-dicarboxamide], the “cytotoxicity (lowest concentration at which a morphological change is observed)” value was > 8 micromolar.
With `CC(C)c1c(C(=O)N(C)Cc2ccc(Cl)cc2Cl)[nH]c(C(N)=O)c1S(=O)(=O)c1ccccc1` [Example 63, N-(2,4-dichlorobenzyl)-3-isopropyl-N-methyl-4-(phenylsulfonyl)-1H-pyrrole-2,5-dicarboxamide] the “cytotoxicity (lowest concentration at which a morphological change is observed)” value was > 8 micromolar.
`CC(C)c1c(C(=O)N(C)Cc2ccc3ncccc3c2)[nH]c(C(N)=O)c1S(=O)(=O)c1ccccc1` [Example 64, 3-isopropyl-N-methyl-4-(phenylsulfonyl)-N-(6-quinolinylmethyl)-1H-pyrrole-2,5-dicarboxamide] was tested, and the “cytotoxicity (lowest concentration at which a morphological change is observed)” value was > 8 micromolar.
For `CCCc1c(C(=O)N(C)Cc2ccc3ncccc3c2)[nH]c(C(N)=O)c1S(=O)(=O)c1ccccc1` [Example 65, N-methyl-4-(phenylsulfonyl)-3-propyl-N-(6-quinolinylmethyl)-1H-pyrrole-2,5-dicarboxamide], the “cytotoxicity (lowest concentration at which a morphological change is observed)” value was > 8 micromolar.
`CCCCc1c(C(=O)N(C)Cc2ccc3ncccc3c2)[nH]c(C(N)=O)c1S(=O)(=O)c1ccccc1` [Example 66, 3-butyl-N-methyl-4-(phenylsulfonyl)-N-(6-quinolinylmethyl)-1H-pyrrole-2,5-dicarboxamide] was tested, and the “cytotoxicity (lowest concentration at which a morphological change is observed)” value was > 8 micromolar.
`CCCCc1c(C(=O)N(C)Cc2ccc3ncccc3c2)[nH]c(C(N)=O)c1S(=O)(=O)c1cccc(C)c1` [Example 67, 3-butyl-N-methyl-4-(3-methylphenylsulfonyl)-N-(6-quinolinylmethyl)-1H-pyrrole-2,5-dicarboxamide] was tested, and the “cytotoxicity (lowest concentration at which a morphological change is observed)” value was > 8 micromolar.
`CCCCc1c(C(=O)N(C)Cc2ccc3ncccc3c2)[nH]c(C(N)=O)c1S(=O)(=O)c1cccc(Cl)c1` [Example 68, 3-butyl-4-[(3-chlorophenyl)sulfonyl]-N-methyl-N-(6-quinolinylmethyl)-1H-pyrrole-2,5-dicarboxamide] was tested, and the “cytotoxicity (lowest concentration at which a morphological change is observed)” value was > 8 micromolar.
`CCCCc1c(C(=O)N(C)Cc2ccc3ncccc3c2)[nH]c(C(N)=O)c1S(=O)(=O)c1cc(C)cc(C)c1` [Example 69, 3-butyl-4-[(3,5-dimethylphenyl)sulfonyl]-N-methyl-N-(6-quinolinylmethyl)-1H-pyrrole-2,5-dicarboxamide] was tested, and the “cytotoxicity (lowest concentration at which a morphological change is observed)” value was > 8 micromolar.
With `CCCCc1c(C(=O)N(C)Cc2ccc3ncccc3c2)[nH]c(C(N)=O)c1S(=O)(=O)c1cc(Cl)cc(Cl)c1` [Example 70, 3-butyl-4-[(3,5-dichlorophenyl)sulfonyl]-N-methyl-N-(6-quinolinylmethyl)-1H-pyrrole-2,5-dicarboxamide] the “cytotoxicity (lowest concentration at which a morphological change is observed)” value was > 8 micromolar.
With `Cc1c(C(=O)N(C)Cc2ccc(Cl)cc2Cl)[nH]c(C(=O)NCc2n[nH]c3ccccc23)c1S(=O)(=O)c1ccccc1` [Example 71, N-(2,4-Dichlorobenzyl)-N′-(1H-indazol-3-ylmethyl)-N,3-dimethyl-4-(phenylsulfonyl)-1H-pyrrole-2,5-dicarboxamide] the “cytotoxicity (lowest concentration at which a morphological change is observed)” value was > 8 micromolar.
`CNC(=O)c1[nH]c(C(=O)N(C)Cc2ccc(Cl)cc2Cl)c(C)c1S(=O)(=O)c1ccccc1` [Example 72, N-(2,4-dichlorobenzyl)-N,N′,3-trimethyl-4-(phenylsulfonyl)-1H-pyrrole-2,5-dicarboxamide] was tested, and the “cytotoxicity (lowest concentration at which a morphological change is observed)” value was > 8 micromolar.
`Cc1cnccc1CNC(=O)c1[nH]c(C(=O)N(C)Cc2ccc(Cl)cc2Cl)c(C)c1S(=O)(=O)c1ccccc1` [Example 73, N-(2,4-dichlorobenzyl)-N,3-dimethyl-N′-[(3-methyl-4-pyridinyl)methyl]-4-(phenylsulfonyl)-1H-pyrrole-2,5-dicarboxamide] was tested, and the “cytotoxicity (lowest concentration at which a morphological change is observed)” value was > 8 micromolar.
`Cc1c(C(=O)N(C)Cc2ccc(Cl)cc2Cl)[nH]c(C(=O)NCc2ccccn2)c1S(=O)(=O)c1ccccc1` [Example 74, N-(2,4-dichlorobenzyl)-N,3-dimethyl-4-(phenylsulfonyl)-N′-(2-pyridinylmethyl)-1H-pyrrole-2,5-dicarboxamide] was tested, and the “cytotoxicity (lowest concentration at which a morphological change is observed)” value was > 8 micromolar.
`Cc1c(C(=O)N(C)Cc2ccc(Cl)cc2Cl)[nH]c(C(=O)NCc2cccnc2)c1S(=O)(=O)c1ccccc1` [Example 75, N-(2,4-dichlorobenzyl)-N,3-dimethyl-4-(phenylsulfonyl)-N′-(3-pyridinylmethyl)-1H-pyrrole-2,5-dicarboxamide] was tested, and the “cytotoxicity (lowest concentration at which a morphological change is observed)” value was > 8 micromolar.
`Cc1c(C(=O)N(C)Cc2ccc(Cl)cc2Cl)[nH]c(C(=O)NCc2nccs2)c1S(=O)(=O)c1ccccc1` [Example 76, N-(2,4-dichlorobenzyl)-N,3-dimethyl-4-(phenylsulfonyl)-N′-(1,3-thiazol-2-ylmethyl)-1H-pyrrole-2,5-dicarboxamide] was tested, and the “cytotoxicity (lowest concentration at which a morphological change is observed)” value was > 8 micromolar.
With `Cc1c(C(=O)N(C)Cc2ccc(Cl)cc2Cl)[nH]c(C(=O)NCc2c(F)cccc2Cl)c1S(=O)(=O)c1ccccc1` [Example 77, N′-(2-chloro-6-fluorobenzyl)-N-(2,4-dichlorobenzyl)-N,3-dimethyl-4-(phenylsulfonyl)-1H-pyrrole-2,5-dicarboxamide] the “cytotoxicity (lowest concentration at which a morphological change is observed)” value was > 8 micromolar.
`Cc1c(C(=O)N2CCCc3ccccc3C2)[nH]c(C(N)=O)c1S(=O)(=O)c1ccccc1` [Example 78, 4-Methyl-3-(phenylsulfonyl)-5-(1,3,4,5-tetrahydro-2H-2-benzazepine-2-ylcarbonyl)-1H-pyrrole-2-carboxamide] was tested, and the “cytotoxicity (lowest concentration at which a morphological change is observed)” value was > 8 micromolar.

— patent US20100113421A1, “NON-NUCLEOSIDE REVERSE TRANSCRIPTASE INHIBITORS” (priority 2006, published 2010)
